Laboratory results reported in paper PMC3747043.
No constants are given. Whether binding was seen depends on the method and setting. In cells and extracts the contact can be indirect. Some results given as binding are weak or reduced against the parent protein; the word gives no strength.

Amino acid sequences for entries named in this document (tags omitted). Residues count along the entry.
UniProt P15209, residues 32-821: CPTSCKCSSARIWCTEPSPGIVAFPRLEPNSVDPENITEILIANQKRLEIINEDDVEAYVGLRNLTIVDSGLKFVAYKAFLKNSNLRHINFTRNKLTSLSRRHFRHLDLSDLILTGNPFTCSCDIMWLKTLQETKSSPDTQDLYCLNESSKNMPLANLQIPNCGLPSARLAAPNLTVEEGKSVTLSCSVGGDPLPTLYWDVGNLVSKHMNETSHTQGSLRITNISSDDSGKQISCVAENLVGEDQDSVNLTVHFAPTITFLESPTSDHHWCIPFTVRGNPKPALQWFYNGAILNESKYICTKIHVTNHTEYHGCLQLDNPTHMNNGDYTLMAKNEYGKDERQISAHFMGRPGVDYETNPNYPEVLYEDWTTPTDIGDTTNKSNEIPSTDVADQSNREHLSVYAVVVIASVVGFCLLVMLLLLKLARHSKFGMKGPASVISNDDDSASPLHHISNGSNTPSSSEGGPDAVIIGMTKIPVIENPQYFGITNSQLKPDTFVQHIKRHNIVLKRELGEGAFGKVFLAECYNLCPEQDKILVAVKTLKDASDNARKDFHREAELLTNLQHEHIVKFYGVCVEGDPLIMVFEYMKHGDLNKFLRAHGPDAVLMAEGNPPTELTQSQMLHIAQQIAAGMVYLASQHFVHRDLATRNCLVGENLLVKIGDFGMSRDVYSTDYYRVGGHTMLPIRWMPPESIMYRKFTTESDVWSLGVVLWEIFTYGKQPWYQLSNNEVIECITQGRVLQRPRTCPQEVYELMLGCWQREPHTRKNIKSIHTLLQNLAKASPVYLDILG
UniProt O88307, residues 82-2215: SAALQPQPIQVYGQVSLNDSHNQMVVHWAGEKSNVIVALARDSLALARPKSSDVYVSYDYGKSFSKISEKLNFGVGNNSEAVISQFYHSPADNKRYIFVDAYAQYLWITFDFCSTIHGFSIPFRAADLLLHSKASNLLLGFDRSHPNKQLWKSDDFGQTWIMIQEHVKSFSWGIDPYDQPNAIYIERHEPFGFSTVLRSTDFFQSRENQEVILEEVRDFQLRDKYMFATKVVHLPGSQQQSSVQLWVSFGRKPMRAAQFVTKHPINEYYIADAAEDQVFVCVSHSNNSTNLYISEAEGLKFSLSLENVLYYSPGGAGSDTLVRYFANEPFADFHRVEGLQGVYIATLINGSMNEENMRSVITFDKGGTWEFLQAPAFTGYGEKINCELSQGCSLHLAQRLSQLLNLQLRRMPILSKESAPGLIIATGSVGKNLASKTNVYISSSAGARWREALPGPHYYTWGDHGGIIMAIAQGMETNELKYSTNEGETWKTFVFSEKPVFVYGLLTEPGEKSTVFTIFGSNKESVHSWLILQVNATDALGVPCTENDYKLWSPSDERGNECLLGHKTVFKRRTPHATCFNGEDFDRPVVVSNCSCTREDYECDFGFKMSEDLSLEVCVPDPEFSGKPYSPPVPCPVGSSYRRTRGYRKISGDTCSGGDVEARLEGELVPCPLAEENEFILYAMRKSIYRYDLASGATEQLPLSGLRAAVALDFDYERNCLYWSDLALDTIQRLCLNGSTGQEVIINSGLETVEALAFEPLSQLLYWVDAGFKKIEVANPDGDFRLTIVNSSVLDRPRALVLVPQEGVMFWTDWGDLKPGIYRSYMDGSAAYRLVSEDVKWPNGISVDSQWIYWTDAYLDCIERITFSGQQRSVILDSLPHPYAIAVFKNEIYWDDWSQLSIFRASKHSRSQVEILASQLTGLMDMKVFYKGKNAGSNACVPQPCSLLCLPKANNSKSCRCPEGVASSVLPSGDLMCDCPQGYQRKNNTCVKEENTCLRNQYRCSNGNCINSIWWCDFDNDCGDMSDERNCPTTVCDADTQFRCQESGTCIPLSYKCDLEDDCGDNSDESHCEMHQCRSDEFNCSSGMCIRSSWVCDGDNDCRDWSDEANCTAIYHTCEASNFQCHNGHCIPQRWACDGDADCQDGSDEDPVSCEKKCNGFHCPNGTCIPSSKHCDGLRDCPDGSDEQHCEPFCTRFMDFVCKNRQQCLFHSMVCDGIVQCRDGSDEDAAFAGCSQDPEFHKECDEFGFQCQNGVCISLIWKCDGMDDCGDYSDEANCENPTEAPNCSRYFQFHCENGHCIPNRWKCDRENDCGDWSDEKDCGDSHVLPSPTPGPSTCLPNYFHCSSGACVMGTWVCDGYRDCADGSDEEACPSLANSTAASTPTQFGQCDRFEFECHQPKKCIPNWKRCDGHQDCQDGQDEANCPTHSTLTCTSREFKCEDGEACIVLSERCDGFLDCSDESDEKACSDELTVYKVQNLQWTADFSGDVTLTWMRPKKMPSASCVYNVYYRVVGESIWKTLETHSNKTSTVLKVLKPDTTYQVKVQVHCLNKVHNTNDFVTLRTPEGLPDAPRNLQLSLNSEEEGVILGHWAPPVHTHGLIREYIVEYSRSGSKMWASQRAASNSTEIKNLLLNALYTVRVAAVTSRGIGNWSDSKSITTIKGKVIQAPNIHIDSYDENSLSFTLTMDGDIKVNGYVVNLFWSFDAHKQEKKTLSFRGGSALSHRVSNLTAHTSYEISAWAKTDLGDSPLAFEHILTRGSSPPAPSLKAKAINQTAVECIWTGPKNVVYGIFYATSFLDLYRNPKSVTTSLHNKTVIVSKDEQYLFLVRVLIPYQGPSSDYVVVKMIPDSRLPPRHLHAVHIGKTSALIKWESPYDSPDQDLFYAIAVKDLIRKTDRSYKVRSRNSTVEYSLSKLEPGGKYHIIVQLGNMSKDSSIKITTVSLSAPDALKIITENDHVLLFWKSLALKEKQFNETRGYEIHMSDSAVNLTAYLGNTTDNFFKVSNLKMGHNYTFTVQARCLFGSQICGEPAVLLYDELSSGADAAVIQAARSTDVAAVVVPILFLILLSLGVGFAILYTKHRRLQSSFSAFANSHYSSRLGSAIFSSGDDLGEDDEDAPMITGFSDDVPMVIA

What was measured:
[1] = biological target: tropomyosin-related kinase receptor B (TrkB) (mouse (endogenous in brain)) (UniProt P15209); test: co-IP; endogenous proteins from brain lysates; IP with anti-SORLA or anti-Trk antisera, control without primary antibody (No IgG); standard protocols utilizing streptavidin agarose beads; Western blot
[2] = biological target: Sorting protein-related receptor containing LDLR class A repeats (SORLA) (mouse (endogenous in brain)) (UniProt O88307); test: as above

| Substance | binding [1] | binding [2] |
| --- | --- | --- |
| Sorting protein-related receptor containing LDLR class A repeats (SORLA) (from UniProt O88307 82-2215) | binds |  |
| tropomyosin-related kinase receptor B (TrkB) (from UniProt P15209 32-821) |  | binds |
